Test results taken from patent publication US4757080A, “1,4-dihydropyridine derivatives” (Heumann Pharma GmbH & Co., priority 1986, dated 1988).

Target: T1, isolated guineapig's ileum (Cavia porcellus)
T1 construct: isolated guineapig's ileum; from tissue; host or cells: isolated guinea pig ileum
Assay: calcium antagonistic activity on isolated guineapig's ileum stimulated with barium chloride
Conditions: read-out: pA2-value (BaCl2) (converted)

## COC(=O)C1=C(C)NC(C)=C(C(=O)OC)C1c1ccccc1[N+](=O)[O-] [Nifedipine, 1,4-dihydro-2,6-dimethyl-4-(2-nitrophenyl)-3,5-pyridine carboxylic acid dimethyl ester]
  Kb: 9.55 nM
